{"source": "PubChem BioAssay AID1347076", "about": "(National Center for Advancing Translational Sciences (NCATS), 2019)", "note": "The campaign covered roughly 400,000 compounds. About 13,000 (3.2%) were called active. Inconclusive results, whose numbers are uncertain, are shown with a selection of clear calls. The call rests on the fitted dose curve; in most records, active means well fitted cell-killing curve with a large enough effect; inconclusive means small, poorly fitted or top-dose-only effect, or effect the other way; inactive means flat fitted curve, though single readings scatter. A potency beside an inconclusive call is a rough fit, not a confirmed value. On the % scale 0 is the no-effect control and ±100 the full control effect; potency means the concentration at half of the fitted maximal effect."}
{"test": "qHTS assay for MDR1-selective chemotherapeutics: Primary screen using the drug-selected MDR subline cells KB-V1; further: nearly all actives have a fitted effect of over 60% in size", "details": "KB-V1 MDR cells viability, CellTiter-Glo, 72 h; activity change, negative = cytotoxicity: at 46.1 µM (top of the series)", "summary_of_the_method": "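Potencies derive from concentration-effect curves fitted to normalized luminescence (CellTiter-Glo) of KB-V1 cells treated for 72 h at 37 degrees C in phenol-red-free DMEM containing 10% FBS.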"}
{"smiles": "CCOC(=O)c1cnc2c(ccc3ccccc32)c1Nc1ccccc1OC", "activity change, negative = cytotoxicity": "inactive: 0.765%"}
{"smiles": "CCCCC(=O)NC(c1cccc([N+](=O)[O-])c1)c1ccc2cccnc2c1O", "note": "(centres undefined)", "Potency": "inconclusive: 0.58 µM [cytotoxic, full curve, poor fit]"}
{"smiles": "COc1ccc2[nH]cc(C(=O)CN3CC(C)CC(C)C3)c2c1", "note": "(centres undefined)", "activity change, negative = cytotoxicity": "inactive: 0.397%"}
{"smiles": "COc1ccc(/C=N/NC(=O)CC(=O)NCc2cccnc2)c(OC)c1", "Potency": "inconclusive: 25.9 µM [rising, single point]"}
{"smiles": "CC(C)Oc1ccc2c(=O)c(-c3ccccc3)coc2c1", "Potency": "inconclusive: 18.4 µM [cytotoxic, single point]"}
{"smiles": "COCCNc1oc(-c2ccc(COc3ccc(OC)cc3)o2)nc1C#N", "activity change, negative = cytotoxicity": "inconclusive: -12.9%"}
{"smiles": "Cc1c(NC(=O)Nc2ccc(Cl)c(Cl)c2)c(=O)n(-c2ccccc2)n1C", "Potency": "inconclusive: 16.4 µM [cytotoxic, partial curve, poor fit]"}
{"smiles": "COc1ccc(NC(=O)N(C2CCCCC2)C(C)c2ccco2)c(OC)c1", "note": "(centres undefined)", "Potency": "inconclusive: 32.6 µM [cytotoxic, partial curve, poor fit]"}
{"smiles": "CCc1nnc(NC(=O)CSc2nc(C)c3c(c2C#N)CCCC3)s1", "Potency": "inconclusive: 17.8 µM [cytotoxic, partial curve, poor fit]"}
{"smiles": "COc1cccc(NC(=O)CSc2ccc(-c3ccco3)nn2)c1", "Potency": "inconclusive: 11.6 µM [cytotoxic, partial curve, poor fit]"}
{"smiles": "CCN(CC(=O)N1CCN(c2ccccc2)CC1)S(=O)(=O)c1ccc(C)cc1", "Potency": "inconclusive: 16.4 µM [cytotoxic, partial curve]"}
{"smiles": "CCNc1nc(NCC)n2c(SCC(=O)Nc3ccc(F)cc3)nnc2n1", "Potency": "inconclusive: 29.1 µM [rising, single point]"}
{"smiles": "CC(=O)OC1c2ccccc2C(=O)N1Cc1ccccc1", "note": "(centres undefined)", "activity change, negative = cytotoxicity": "inactive: -2.35%"}
{"smiles": "CC(C)CNC(=O)C1(C)CCCN1Cc1ccccc1OC(F)F", "note": "(centres undefined)", "Potency": "inconclusive: 18.4 µM [cytotoxic, single point]"}
{"smiles": "Cc1nc2ncnn2c(C)c1CCC(=O)NCCc1ccccc1", "activity change, negative = cytotoxicity": "inactive: 18.1%"}
{"smiles": "CN1CC(=O)N(C)c2ncn(Cc3ccccc3)c2C1=O", "Potency": "inconclusive: 9.2 µM [rising, partial curve, poor fit]"}
{"smiles": "CCc1nc2c(OCCC3CCCCC3)cccn2c1N(C)C(=O)CC(C)C", "Potency": "inconclusive: 29.1 µM [cytotoxic, single point]"}
{"smiles": "COC(=O)C1CCN(c2ccc([N+](=O)[O-])cc2[N+](=O)[O-])CC1", "Potency": "active: 16.4 µM"}
{"smiles": "Cc1ccccc1-n1c(C)cc(/C=C2\\NC(=O)NC2=O)c1C", "Potency": "inconclusive: 20.6 µM [cytotoxic, partial curve, poor fit]"}
{"smiles": "CSc1nc(C)c2c(n1)N(c1ccc(C(C)C)cc1)CC2", "Potency": "active: 8.2 µM"}
{"smiles": "CCc1nnc(NC(=O)C2=CCN(S(=O)(=O)c3ccccc3)CC2)s1", "Potency": "inconclusive: 16.4 µM [cytotoxic, partial curve]"}
{"smiles": "CCOC(=O)N1CCN(C(=O)c2cc3sccc3n2C)CC1", "Potency": "active: 13 µM"}
{"smiles": "COc1ccc(OC)c(C(c2c(O)nc(SC)[nH]c2=O)c2c(O)nc(SC)[nH]c2=O)c1", "Potency": "inconclusive: 16.4 µM [rising, single point]"}
{"smiles": "CCOC(=O)CN(c1sc(C)c(C)c1C(=O)OCC)S(=O)(=O)c1ccc(C)cc1", "Potency": "inconclusive: 10.3 µM [cytotoxic, partial curve, poor fit]"}
{"smiles": "O=S(=O)(c1ccc(N2CCN(S(=O)(=O)c3ccc4c(c3)OCCO4)CC2)nc1)N1CCCC1", "Potency": "active: 8.2 µM"}
{"smiles": "O=C(COc1cccc(NC(=O)c2cccc([N+](=O)[O-])c2)c1)c1ccc(F)cc1", "Potency": "inconclusive: 29.1 µM [cytotoxic, single point]"}
{"smiles": "Cc1cccc(NC(=O)C2(c3ccccc3)CC2(Cl)Cl)c1", "note": "(centres undefined)", "Potency": "inconclusive: 29.1 µM [cytotoxic, single point]"}
{"smiles": "COc1ccc(/C=N/n2c(-c3ccc(C)cc3)n[nH]c2=S)cc1OC", "Potency": "inconclusive: 11.6 µM [cytotoxic, partial curve]"}
{"smiles": "CN(C)Cc1c(O)c(Cl)cc2c3c(c(=O)oc12)CCCC3", "activity change, negative = cytotoxicity": "inactive: 0%"}
{"smiles": "Cc1cc(C(=O)Nc2ccon2)c(C)o1", "Potency": "inconclusive: 20.6 µM [rising, single point]"}
{"smiles": "Cn1c(Cl)c(/C=N/OC(=O)C2CC2)c2ccccc21", "Potency": "inconclusive: 29.1 µM [rising, single point]"}
{"smiles": "Cc1ccc(NC(=O)CCn2cccc2)cc1C", "activity change, negative = cytotoxicity": "inactive: -29.2%"}
{"smiles": "O=C(Nc1ccc(Cl)c(S(=O)(=O)N2CCOCC2)c1)C1CCCC1", "activity change, negative = cytotoxicity": "inactive: 2.83%"}
{"smiles": "CCOc1ccc(NC(=O)c2cnn(-c3ccc(C)c(Cl)c3)c2C2CCNCC2)cc1", "Potency": "inconclusive: 18.4 µM [rising, single point]"}
{"smiles": "CC(=O)Nc1ccc(S(=O)(=O)n2cnc(C)c2)cc1", "Potency": "inconclusive: 6.51 µM [rising, full curve, poor fit]"}
{"smiles": "Cc1ccc2nc(NC(=O)CN(C)S(=O)(=O)c3ccc(Br)s3)sc2c1", "Potency": "inconclusive: 20.6 µM [cytotoxic, partial curve]"}
{"smiles": "CSc1ncccc1C(=O)NC1CC(C)(C)Cc2c1cnn2-c1ccccc1C", "note": "(centres undefined)", "Potency": "inconclusive: 5.8 µM [cytotoxic, partial curve]"}
{"smiles": "O=C(/C=C/c1cccnc1)c1ccc(NC(=O)c2cccc(Br)c2)cc1", "Potency": "active: 7.94 µM"}
{"smiles": "COc1ccc(S(=O)(=O)N2CCC(C(=O)O)(c3ccccc3)CC2)cc1", "Potency": "inconclusive: 32.6 µM [rising, single point]"}
{"smiles": "Cc1noc(/C=C/N(C)C)c1S(=O)(=O)N1CCCC(C(=O)Nc2ccccc2F)C1", "note": "(centres undefined)", "activity change, negative = cytotoxicity": "inactive: 17.1%"}
{"smiles": "Nc1ccc(C(=O)N2CCN(S(=O)(=O)c3ccc(Cl)s3)CC2)cc1[N+](=O)[O-]", "Potency": "inconclusive: 16.4 µM [cytotoxic, single point]"}
{"smiles": "CC(CN1CCOCC1)OC(=O)c1ccc(Br)cc1", "note": "(centres undefined)", "Potency": "inconclusive: 29.1 µM [cytotoxic, single point]"}
{"smiles": "O=C(N/N=C/c1ccc(O)cc1O)c1ccncc1", "Potency": "inconclusive: 29.1 µM [cytotoxic, single point]"}
{"smiles": "O=C(CSc1nnc(Cc2ccccc2)n1-c1ccccc1)N1CCOCC1", "Potency": "inconclusive: 25.9 µM [cytotoxic, partial curve, poor fit]"}
